# Results of single-concentration screens

Sequences of proteins named here, by UniProt entry; tags and fusion partners are left off. Residues count along the entry.
UniProt A4I591, 1-473: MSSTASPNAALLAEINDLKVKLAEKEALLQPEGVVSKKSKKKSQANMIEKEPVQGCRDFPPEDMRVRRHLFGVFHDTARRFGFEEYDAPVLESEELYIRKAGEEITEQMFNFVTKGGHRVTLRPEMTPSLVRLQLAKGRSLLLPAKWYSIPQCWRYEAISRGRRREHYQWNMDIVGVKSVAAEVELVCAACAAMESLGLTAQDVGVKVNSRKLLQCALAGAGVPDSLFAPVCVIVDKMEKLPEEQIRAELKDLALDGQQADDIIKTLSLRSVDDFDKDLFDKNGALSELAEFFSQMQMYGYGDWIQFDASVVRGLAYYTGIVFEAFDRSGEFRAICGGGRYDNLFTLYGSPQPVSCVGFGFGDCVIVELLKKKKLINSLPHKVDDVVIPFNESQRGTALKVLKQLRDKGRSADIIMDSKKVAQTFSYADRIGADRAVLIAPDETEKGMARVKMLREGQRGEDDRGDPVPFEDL
UniProt P9WNZ1, whole entry: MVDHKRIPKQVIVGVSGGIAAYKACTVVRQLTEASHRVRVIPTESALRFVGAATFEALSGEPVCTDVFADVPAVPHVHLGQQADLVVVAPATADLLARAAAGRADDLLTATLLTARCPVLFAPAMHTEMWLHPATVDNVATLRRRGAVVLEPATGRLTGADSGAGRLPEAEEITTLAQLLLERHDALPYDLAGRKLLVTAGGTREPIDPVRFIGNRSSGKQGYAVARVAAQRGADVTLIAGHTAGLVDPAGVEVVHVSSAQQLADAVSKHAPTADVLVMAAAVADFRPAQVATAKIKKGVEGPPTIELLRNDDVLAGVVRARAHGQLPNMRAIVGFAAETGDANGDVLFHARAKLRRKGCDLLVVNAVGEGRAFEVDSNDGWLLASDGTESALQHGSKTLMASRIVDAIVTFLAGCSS

Source: ChEMBL document CHEMBL3988442, “University of Dundee, Small-Polar-MMV Screening Library” (2021).

LiHisRS: 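Histidine-tRNA ligase, Leishmania infantum (UniProt A4I591). Enzyme assay of histidyl-tRNA synthetase; the read-out is not stated. Compounds at 30 µM. Direction is inferred from retests: higher values go with stronger inhibition. The assay is labelled LdHisRS but filed under L. infantum. Size under these conditions: about 69,000 compounds, about 410 of them at 50% or above in at least one test.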
Leishmania in macrophages: 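Cell assay of Leishmania donovani living inside macrophages; the read-out is not stated. Compounds at 30 µM. Direction is inferred from retests: higher values go with stronger inhibition. About 69,000 compounds were tested under these conditions; 1.5% (about 1,000) showed 50% or more at least once.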
CoaBC: 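Enzyme assay of CoaBC with a phosphate dye (Biomol Green) read at 650 nm. Target: Coenzyme A biosynthesis protein CoaBC, Mycobacterium tuberculosis (UniProt P9WNZ1). Concentration: 30 µM. Higher reads as stronger inhibition, judged from the few compounds that gave an IC50. Most strong results did not repeat in a second test. Size under these conditions: about 67,000 compounds, about 40 of them at 50% or above in at least one test.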

Values are the deposited “Percent Effect”, in %. The controls that fix the scale are not given in the record; negative values are as filed. Compounds were drawn at random from those tested, without regard to their results. Two or more numbers in one place are separate tests of the same structure; such repeats can differ widely. A dash means the value is not listed here; it may have been measured.

COc1ccc(C(=O)N(C)Cc2nnc3ccccn23)c(OC)c1OC gave LiHisRS: 16.81%; Leishmania in macrophages: 25.09%; CoaBC: 1.567%.
Cc1cccc(NC(=O)N(CCC(F)(F)F)C[C@H](O)CO)c1 gave LiHisRS: 10.53%; Leishmania in macrophages: 5.866%; CoaBC: 6.452%.
CCC(Nc1nnnn1-c1ccccc1)C(=O)Nc1ccccc1C (stereo not given) gave LiHisRS: 11.11%; Leishmania in macrophages: 14.51%; CoaBC: 8.824%.
O=C(O)C(F)(F)F.[H][C@@]12CCN(Cc3ccc4c(c3)OCO4)C[C@]1(C(=O)NC)CCO2 gave Leishmania in macrophages: 18.86%.
COCCc1noc(CN2CCCC2c2c(C)nn(C)c2OC)n1 (stereo not given) gave LiHisRS: 9.565%; Leishmania in macrophages: 10.41%; CoaBC: 2.163%.
O=C(NCCCC(=O)N1Cc2ccccc2C1)NCc1cccnc1 gave LiHisRS: 9.091%; Leishmania in macrophages: -9.368%; CoaBC: 9.177%.
CCCNC(=O)C(C)NC(=O)CCc1ccccc1Br (stereo not given) gave LiHisRS: 12.5%; Leishmania in macrophages: 3.712%; CoaBC: -0.4219%.
COc1cc(C(=O)Nc2nc(C)no2)cc(Cl)c1OC gave LiHisRS: 8.475%; Leishmania in macrophages: 14.31%; CoaBC: 0.7874%.
O=C(O)C(F)(F)F.O=C1CC[C@]2(CC[C@@H](NCc3ccoc3)CC2)N1 gave Leishmania in macrophages: -4.845%.
CCn1cc(NC(=O)C2CCN(CC(=O)NC3CCCC3)CC2)cn1 gave LiHisRS: 8.036%; Leishmania in macrophages: 8.374%; CoaBC: 1.66%.
COCCN1CCC2(CC1)CC(N1CCOCC1)c1ccc(C)cc12.O=C(O)C(F)(F)F.O=C(O)C(F)(F)F (stereo not given) gave Leishmania in macrophages: 56.38%.
COc1ccc(C(=O)NCCN(C)C)c(I)c1 gave LiHisRS: 19.35%; Leishmania in macrophages: 25.39%; CoaBC: 5.051%.
O=c1[nH][nH]cc1-c1ccnc(NCCN2CCCCC2)n1 gave LiHisRS: 8.571%; Leishmania in macrophages: 6.844% & 4.01%; CoaBC: 3.976%.
CCc1cc(N[C@H]2CCC[C@H]2CO)n2nccc2n1 gave LiHisRS: 14.29%; Leishmania in macrophages: 8.755%; CoaBC: 7.991%.
CC(C)N1CCC2(CC1)CC(NS(C)(=O)=O)c1ccccc1O2 (stereo not given) gave LiHisRS: 5.556%; CoaBC: -4.444%.
COc1c(C2CCCN2C(=O)c2ccc3[nH]cnc3c2)c(C)nn1C (stereo not given) gave LiHisRS: 13.27%; Leishmania in macrophages: -4.66%; CoaBC: 7.05%.
CC(C)NC(=O)[C@H](C)NC(=O)N1CCN(c2ccc(Cl)cc2)CC1 gave LiHisRS: 5.128%; Leishmania in macrophages: 5.371% & -13.92%; CoaBC: 0.2545%.
CCNC(=O)[C@@H]1C[C@H](NC(=O)c2ccc(C)s2)CN1Cc1ccc(C)o1 gave LiHisRS: 24.49%; Leishmania in macrophages: 21.81%; CoaBC: -0.1653%.
O=C(c1onc2ccccc12)N1CCC2(CCCNC2)C1 (stereo not given) gave LiHisRS: 14.29%; Leishmania in macrophages: -28%; CoaBC: 2.479%.
Cc1ccccc1NC(=O)NCC(C)(O)c1cccs1 (stereo not given) gave LiHisRS: -32.61%; Leishmania in macrophages: 34.16%; CoaBC: 1.211%.
CC(C)c1nccn1C1CCCN(C(=O)c2cccc3c2OCO3)C1 (stereo not given) gave LiHisRS: 2.381%; Leishmania in macrophages: 22.84%; CoaBC: 3.203%.
Cc1nc(CN2C(=O)C[C@H]3[C@H]2CCN3C2CCOCC2)cs1 gave LiHisRS: 9.524%; CoaBC: 0.6452%.
COC(=O)C(C)N(Cc1cc(C)on1)C1CC1 (stereo not given) gave LiHisRS: 10%; Leishmania in macrophages: 19.13%; CoaBC: -5.446%.
O=C(CCc1nc2ccccc2[nH]1)N1CCCC(n2cccn2)C1 (stereo not given) gave LiHisRS: 12.5%; Leishmania in macrophages: 34.3%; CoaBC: -4.943%.
CNc1nc(C)cc(N2CCC(C(=O)O)(n3ccc(C(C)C)n3)CC2)n1 gave LiHisRS: 3.279%; Leishmania in macrophages: 18.59%; CoaBC: 1.023%.
Cc1cc(NCc2nnc3n2CCC3)n2nc(C)c(C)c2n1 gave LiHisRS: 18.75%; Leishmania in macrophages: 14.44%; CoaBC: 1.923%.
COc1cccc(CN(C)C(=O)Nc2ccc3c(c2)OCCO3)c1 gave LiHisRS: 40%; Leishmania in macrophages: 28.91%; CoaBC: 1.215%.
[H][C@]12CC[C@]([H])(CN(S(=O)(=O)c3ccccc3)C1)N(Cc1cscn1)C2=O gave Leishmania in macrophages: -13.6%.
CC(C)N(Cc1ccc(C#N)cc1)C(=O)NCCNc1ncccn1 gave LiHisRS: 10.53%; Leishmania in macrophages: 17.89%; CoaBC: 4.435%.
CCS(=O)(=O)N1CCC(C(=O)NC(Cc2ccsc2)c2nccs2)CC1 (stereo not given) gave LiHisRS: 14.43%; Leishmania in macrophages: 5.89% & -22.53%; CoaBC: 0.7264%.
Cc1nn(C)c(C)c1C1COCCN1C(=O)CSC(C)(C)C (stereo not given) gave LiHisRS: 3.101%; Leishmania in macrophages: 16.96%; CoaBC: 0.86%.
CC(=O)NCCNC(=O)c1sc(-c2ccc(Cl)cc2)nc1C gave LiHisRS: 9.174%; Leishmania in macrophages: -4.099%; CoaBC: 6.849%.
Cc1c(NCC(C)(C)C)cccc1C(=O)NCc1ncnn1C gave LiHisRS: 6.349%; Leishmania in macrophages: -10.07%; CoaBC: -2.269%.

3 of the entries, repeated:

| compound | LiHisRS | Leishmania in macrophages | CoaBC |
|---|---|---|---|
| `[H][C@]12CC[C@]([H])(CN(S(=O)(=O)c3ccccc3)C1)N(Cc1cscn1)C2=O` | - | -13.6% | - |
| `CCc1cc(N[C@H]2CCC[C@H]2CO)n2nccc2n1` | 14.29% | 8.755% | 7.991% |
| `CCNC(=O)[C@@H]1C[C@H](NC(=O)c2ccc(C)s2)CN1Cc1ccc(C)o1` | 24.49% | 21.81% | -0.1653% |